Reference: PubChem BioAssay AID1487 (National Center for Advancing Translational Sciences (NCATS), 2009)
Out of some 200,000 compounds screened, about 25 (0.01%) were called active. Inconclusive means that the source gave no clear call. Such entries were picked first, then a sample of the others. Calls come from the whole dose curve; as a rule, active = well fitted inhibition curve with a large enough effect in the signal ratio, with a control signal flat (not every such curve was filed as active); inconclusive = small, poorly fitted or top-dose-only effect, or effect the other way, or a change in a side signal; inactive = flat fitted curve, though single readings scatter; the % refers to the signal ratio. Where the call is inconclusive, the potency comes from a doubtful curve fit.

Test: qHTS Assay for Modulators of Lamin A Splicing
Details: HeLa LMNA splicing GFP/RFP minigene ratio, 48 h
In short: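 S3 HeLa stable clones carrying a lamin A-EGFP splicing minigene plus DsRed2 were seeded at 600 cells/well in Opti-MEM with 2% FBS, pin-dosed and incubated 48 h at 37°C. Acumen cytometry (488 nm) gave the GFP/RFP total-intensity ratio.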

[1] = ratio change, negative = inhibition: at 46.1 µM (top of the series) unless noted
% is set by controls: 0 for no effect and ±100 for the full control effect; potency is the fitted concentration of half-maximal effect.

N#Cc1c(C(F)(F)F)cc(-c2ccco2)nc1SCc1ccncc1
ratio change, negative = inhibition [1]: inactive

CC(C)(C)NCC(O)COc1nsnc1N1CCOCC1 (stereo unspecified)
ratio change, negative = inhibition [1]: inconclusive: 4.56%

O=S(=O)(c1ccc(C2CCCCC2)cc1)N1CCCC1
Potency [1]: inconclusive: 35.5 µM [fluorescent, single point]

O=C(NCc1nc2ccccc2[nH]1)c1ccc(Cl)c(S(=O)(=O)N2CCCC2)c1
ratio change, negative = inhibition [1]: inactive

CCCC(=O)Nc1ccc(C(=O)NNC(=S)NC(=O)c2ccc(Br)o2)cc1
Potency [1]: inconclusive: 11.2 µM [inhibitor, partial curve]

COc1cccc(C(=O)Nc2nc(-c3ccccc3)c(-c3ccccc3)o2)c1
Potency [1]: inconclusive: 25.1 µM [falling, single point]

O=C(Cc1cccs1)NCc1ccc(F)cc1
ratio change, negative = inhibition [1]: inactive

COc1cc(NC(=O)Cn2nc(C(F)(F)F)c3c2CCCC3)cc(OC)c1OC
Potency [1]: inconclusive: 35.5 µM [falling, single point]

O=C1C=CC2=C3c4cc(O)c(O)cc4CC3(O)COC2=C1O (stereo unspecified)
ratio change, negative = inhibition [1]: inactive

O=C(c1cn(-c2ccccc2)nc1-c1ccccc1)N1CCOCC1
ratio change, negative = inhibition [1]: inactive

C=CCNC(=S)Nc1cc(S(=O)(=O)N2CCOCC2)ccc1-n1cncn1
ratio change, negative = inhibition [1]: inactive

Cc1occc1-c1nnc(SCC(=O)Nc2ccccn2)o1
ratio change, negative = inhibition [1]: inconclusive: 13.8% [at 46 µM]

O=C(NNc1ccccc1Br)C(O)(c1cccc(C(F)(F)F)c1)c1cccc(C(F)(F)F)c1
Potency [1]: inconclusive: 11.2 µM [fluorescent, partial curve]

Clc1ccc(CSc2nnc(-c3ccncc3)o2)cc1
ratio change, negative = inhibition [1]: inconclusive: -9.18%

CC1COc2ccccc2N1S(=O)(=O)c1ccccc1 (stereo unspecified)
ratio change, negative = inhibition [1]: inconclusive: 12.2% [at 46 µM]

Cc1ccc(NC(=S)N(CCCN2CCCC2)Cc2cccn2Cc2ccc(Cl)cc2)cc1
Potency [1]: inconclusive: 35.5 µM [cytotoxic, single point]

C/C(=N\NC(=O)c1ccc(N/N=C(\C)c2ccncc2)cc1)c1ccncc1
ratio change, negative = inhibition [1]: inconclusive: -20.9% [at 46 µM]

O=C(C1CCN(CC2CC=CCC2)CC1)N(CCc1ccccc1)Cc1ccccc1 (stereo unspecified)
ratio change, negative = inhibition [1]: inconclusive: -13.4%

CC1CN(Cc2c(O)ccc3c(=O)c(-c4ccccc4)coc23)CC(C)O1 (stereo unspecified)
ratio change, negative = inhibition [1]: inconclusive: 13.5% [at 46 µM]

Cc1cc(Nc2ccc([N+](=O)[O-])cc2)nc2ccccc12
ratio change, negative = inhibition [1]: inconclusive: 31.8% [at 46 µM]

CC1(C)C(=O)OC(c2cccn2-c2cccc([N+](=O)[O-])c2)C2(CCCCC2)C1=O (stereo unspecified)
ratio change, negative = inhibition [1]: inconclusive: -32.4%

CCCN1C(=O)CN(C2CCCCCC2)C(=O)C1c1ccc(OCC)c(OC)c1 (stereo unspecified)
ratio change, negative = inhibition [1]: inconclusive: -9.57% [at 46 µM]

COC(=O)c1cc(NC(=O)c2cccc(Cl)c2)c(=O)oc1/C=C/Nc1cc(C)cc(C)c1
Potency [1]: inconclusive: 5.62 µM [activator, full curve]

COc1cccc(-c2cc(C(F)(F)F)n3nc(C(=O)Nc4c(C)n(C)n(-c5ccccc5)c4=O)cc3n2)c1
ratio change, negative = inhibition [1]: inconclusive: 4.33% [at 46 µM]

O=S(=O)(/C=C/c1ccccc1)Oc1ccccc1
Potency [1]: inconclusive: 11.2 µM [inhibitor, single point]

CCOC(=O)c1cnn(CCOC(=O)C2CC2)c1NC(=O)C1CC1
ratio change, negative = inhibition [1]: inconclusive: 3.15%

Nc1nc2nccc(-c3cccnc3)n2n1
ratio change, negative = inhibition [1]: inconclusive: -2.46% [at 46 µM]

Cc1ccc(C(=O)N2CCN(c3ccccc3F)CC2)cc1NC(=O)c1nsc2ccccc12
ratio change, negative = inhibition [1]: inconclusive: 3.95% [at 46 µM]

Clc1ccc(-c2c[n+](Cc3ccc(Cl)c(Cl)c3)c3n2CCC3)cc1
Potency [1]: inconclusive: 22.4 µM [falling, partial curve]

Cc1ccc(NC(=O)CSc2n[nH]c(-c3ccncc3)n2)cc1
ratio change, negative = inhibition [1]: inconclusive: 7.15%

COc1ccc(Cl)cc1NC(=S)NCCSc1ccc(C)cc1
ratio change, negative = inhibition [1]: inconclusive: -38.3%

CCOC(=O)CCn1nc(-c2ccc(Cl)cc2)cc1N
Potency [1]: inconclusive: 35.5 µM [rising, single point]

NC(=O)c1ncn(C2OC(CO)C(O)C2O)c1N (stereo unspecified)
ratio change, negative = inhibition (at 46.1 µM (top of the series)): inactive: 5.65% | ratio change, negative = inhibition [1]: inconclusive: 24%

CC(/C=C/C=C(\C)C(=O)O[C@@H]1O[C@H](CO[C@@H]2O[C@H](CO)[C@@H](O)[C@H](O)[C@H]2O)[C@@H](O)[C@H](O)[C@H]1O)=C\C=C\C=C(C)\C=C\C=C(/C)C(=O)O[C@@H]1O[C@H](CO[C@@H]2O[C@H](CO)[C@@H](O)[C@H](O)[C@H]2O)[C@@H](O)[C@H](O)[C@H]1O
ratio change, negative = inhibition [1]: inconclusive: -16.2%

O=C(CSc1ncn(-c2ccccc2)n1)Nc1nccs1
ratio change, negative = inhibition [1]: inactive

COc1ccc(OC)c(NC(=O)CSc2nnc(-c3cccnc3)s2)c1
ratio change, negative = inhibition [1]: inconclusive: -34.2% [at 46 µM]

C=CCN(CC=C)C(=O)c1ccccc1NC(=O)c1ccccc1C
ratio change, negative = inhibition [1]: inactive

Cc1ccc(CCC(=O)Nc2ccccc2F)s1
ratio change, negative = inhibition [1]: inconclusive: -0.0342% [at 46 µM]

Cc1ccccc1N1Cc2ccccc2C1
ratio change, negative = inhibition [1]: inconclusive: -14.5%

CCc1ccc(N2C(=O)CS(=O)(=O)C23C(=O)N(Cc2ccccc2)c2ccccc23)cc1 (stereo unspecified)
ratio change, negative = inhibition [1]: inconclusive: -13.2% [at 46 µM]

COc1ccc(OCCn2cc(/C=N/NC(=O)c3ccncc3)c3ccccc32)cc1
Potency [1]: inconclusive: 35.5 µM [falling, single point]

CCCc1nn(C)c2c(=O)[nH]c(-c3cc(S(=O)(=O)N4CCN(C)CC4)ccc3OCC)nc12
ratio change, negative = inhibition [1]: inconclusive: -10.6%

CCOC(=O)C(=NCCCN1CCOCC1)NNc1cccc(C(F)(F)F)c1
ratio change, negative = inhibition [1]: inconclusive: 26.4% [at 46 µM]

Cc1ccc(N(Cc2ccco2)C(=O)c2ccc(N3CCCCC3)c([N+](=O)[O-])c2)cc1
ratio change, negative = inhibition [1]: inconclusive: -38.1%

CC(=O)c1ccc(NC(=O)C2CCCN(S(=O)(=O)c3cn(C)cn3)C2)cc1 (stereo unspecified)
ratio change, negative = inhibition [1]: inactive

CN(C)C(=O)c1ccc(-c2nc(NC3CCNCC3)c3ccccc3n2)cc1
ratio change, negative = inhibition [1]: inactive

Cc1cccc[n+]1C1C(c2ccc([N+](=O)[O-])cc2)C(C#N)=C(C(=C=[N-])C#N)NC1(O)C1CC1 (stereo unspecified)
ratio change, negative = inhibition [1]: inconclusive: 17.1% [at 46 µM]

CCOC(=O)C1CCN(Cc2ccccc2C)CC1
ratio change, negative = inhibition [1]: inactive

O=c1c2sccc2nc(SCc2cc(=O)n3ccccc3n2)n1-c1ccc(Br)cc1
ratio change, negative = inhibition [1]: inconclusive: -17%

CC(C)CC(C(=O)Nc1oc(-c2ccccc2)c(-c2ccccc2)c1C#N)N1C(=O)c2ccccc2C1=O (stereo unspecified)
Potency [1]: inconclusive: 35.5 µM [falling, single point]

CCOC(=O)CSc1nc(C(C)(C)C)nc2ccccc12
ratio change, negative = inhibition [1]: inconclusive: 9.12% [at 46 µM]

c1ccc(-c2ccc(-c3cn4c(n3)CCC4)cc2)cc1
Potency [1]: inconclusive: 10 µM [falling, partial curve]

CCOc1ccccc1/C=C(/NC(=O)c1ccccc1)C(=O)NCC(=O)O
ratio change, negative = inhibition [1]: inconclusive: 1.05%

Fc1ccccc1CNC(=S)Nc1cccc(C(F)(F)F)c1
Potency [1]: inconclusive: 35.5 µM [falling, partial curve, poor fit]

Cc1cccnc1NC(=S)NC(=O)c1cccs1
ratio change, negative = inhibition [1]: inactive

COc1cc(CNCCc2ccccc2)cc(Br)c1OCC(=O)Nc1ccccc1C
Potency [1]: inconclusive: 11.2 µM [rising, partial curve, poor fit]

CCCN1CCCc2cc(CN)ccc21
Potency [1]: inconclusive: 35.5 µM [fluorescent, single point]

Cc1c(-c2nc(N)nc(Nc3ccc(F)cc3)n2)oc2ccccc12
ratio change, negative = inhibition [1]: inconclusive: 51.7%

CCOC(=O)N1CCN(c2nc3c(c(=O)[nH]c(=O)n3C)n2Cc2ccccc2Cl)CC1
ratio change, negative = inhibition [1]: inconclusive: 12.6%

COc1cccc(OC)c1OCCNCC1CSc2ccccc2O1 (stereo unspecified)
ratio change, negative = inhibition [1]: inconclusive: -54.6%

CCOC(=O)N1CCN(C(=O)c2cn(CC)c3cc(N4CCN(C)CC4)c(F)cc3c2=O)CC1
ratio change, negative = inhibition [1]: inactive

Cc1cccc(NC(=O)NC2COc3ccccc3C2)c1C (stereo unspecified)
ratio change, negative = inhibition [1]: inconclusive: 9.52% [at 46 µM]

CCSc1ccccc1C(=O)Nc1ccc2c(c1)OCO2
ratio change, negative = inhibition [1]: inconclusive: 5.76% [at 46 µM]

CC(=O)O[C@H]1CC2(C)[C@@H](C[C@@H](O)[C@H]3[C@@]4(C)CC[C@@H](O)[C@@H](C)[C@@H]4CC[C@@]32C)C1=C(CCC=C(C)C)C(=O)O (stereo partly specified)
ratio change, negative = inhibition [1]: inconclusive: -5.74%

Cc1sccc1/C=N/NC(=O)c1cccc2ccccc12
ratio change, negative = inhibition [1]: inactive

C[C@@H]1CN(c2c(F)c(F)c3c(=O)c(C(=O)O)cn(C4CC4)c3c2F)C[C@H](C)N1
ratio change, negative = inhibition [1]: inconclusive: -3.18%

O=C1CCCN1CCCNc1ncnc2c1cnn2-c1ccc(Cl)cc1
Potency [1]: inconclusive: 15.8 µM [falling, partial curve, poor fit]

O=S(=O)(Nc1cccc(-c2ccc(N3CCOCC3)nn2)c1)c1cc(C(F)(F)F)ccc1Cl
ratio change, negative = inhibition [1]: inconclusive: 15.7% [at 46 µM]

COc1ccccc1NC(=O)CN1CCN(CC(=O)Nc2ccc(F)c(F)c2)CC1
ratio change, negative = inhibition [1]: inactive

CCCCOc1ccc(NC(=O)CN2CCN(C(=O)OCC)CC2)cc1
ratio change, negative = inhibition [1]: inactive

CCOc1ccc(OCCCN(C)C)cc1
ratio change, negative = inhibition [1]: inactive

CCOCCCNS(=O)(=O)c1cc(Br)cc2c1N(C(=O)C1CC1)CC2
ratio change, negative = inhibition [1]: inactive

CCN(C(=O)Cn1c(SCC(=O)NCc2ccccc2)nc2ccccc21)c1cccc(C)c1
ratio change, negative = inhibition [1]: inactive

CCc1ccc(C2C(C#N)=C(N)N(N(C)C)C3=C2C(=O)CCC3)s1 (stereo unspecified)
ratio change, negative = inhibition [1]: inconclusive: 1.69%

Cc1cccc(-c2nc(Nc3ccc(N4CCOCC4)cc3)c3ccccc3n2)c1
Potency [1]: inconclusive: 15.8 µM [falling, single point]
